Measurements reported in PubChem BioAssay AID504764 (Drosophila RNAi Screening Center, 2011).

- Assay: 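Genes whose knock-down alters Notch-dependent transcription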 (primary screen)
- System: Drosophila Kc167 cells
- Reagent: long dsRNA against Drosophila genes
- Duration: about 5 days (4 days dsRNA, then 24 h after transfection)
- Treatment: transfection of constitutively active membrane-tethered Notch lacking the extracellular domain, read 24 h later
- Measured: 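Light from a Notch-responsive E(spl)m3 luciferase reporter under active Notch, with control-promoter and no-Notch reporter wells to normalise; raw counts from paired wells a and b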
- Direction: induced reporter light, run 1, well a and induced reporter light, run 1, well b: higher = more light from the Notch target reporter with active Notch; control promoter light, run 1, well a and control promoter light, run 1, well b: higher = more light from the viral control promoter (cell number, transfection, viability); uninduced reporter light, run 1, well a: higher = more light from the Notch target reporter without active Notch
- Active means: 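Hit if the duplicate-averaged log2 ratio of induced to control-promoter light gives a plate-wise z beyond ±2, or induced to uninduced beyond ±1.8; weak-control or discordant-duplicate wells dropped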
- Calls: active = modifier hit (raised or lowered Notch signal); inactive = not a hit
The deposit covers about 22,000 reagents; below is a random part of those that have a named target and a result. In the full data, 403 (1.9%) were called active. 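Unnormalised raw counts per well; ratio z-scores behind the hit calls and whether each hit raises or lowers signal are not deposited.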 Names joined by + are all predicted targets of the reagent. Not stated in the record: the amount of reagent.

| gene knocked down | DRSC id | induced reporter light, run 1, well a | induced reporter light, run 1, well b | control promoter light, run 1, well a | control promoter light, run 1, well b | uninduced reporter light, run 1, well a | Outcome |
| --- | --- | --- | --- | --- | --- | --- | --- |
| AstCC | DRSC02404 | 1.42e5 | 1.37e5 | 59985 | 81335 | 17605 | inactive |
| Top3alpha | DRSC03460 | 68835 | 43210 | 48120 | 44535 | 3295 | inactive |
| glob3 | DRSC12261 | 1.20e5 | 1.48e5 | 1.93e5 | 1.48e5 | 9855 | inactive |
| CG4332 | DRSC19890 | 1.20e5 | 1.32e5 | 1.01e5 | 1.14e5 | 6370 | inactive |
| CG8834 | DRSC07283 | 1.19e5 | 1.23e5 | 1.24e5 | 1.21e5 | 9190 | active |
| mnb | DRSC20058 | 19905 | 16170 | 17645 | 14685 | 4388 | inactive |
| mnb | DRSC20353 | 59805 | 58660 | 69430 | 65365 | 7060 | inactive |
| CG14538 (retired record) | DRSC02396 | 1.22e5 | 1.47e5 | 96555 | 1.23e5 | 22025 | inactive |
| CG10098 | DRSC12509 | 1.33e5 | 1.17e5 | 86120 | 93435 | 10935 | inactive |
| nAChRalpha4 | DRSC11925 | 1.70e5 | 1.52e5 | 2.60e5 | 2.54e5 | 15020 | inactive |
| GstO2 | DRSC10691 | 1.15e5 | 1.19e5 | 84020 | 31010 | 8125 | inactive |
| CG17272 | DRSC15211 | 1.52e5 | 1.62e5 | 1.78e5 | 1.56e5 | 10500 | inactive |
| CG32454 | DRSC11652 | 1.25e5 | 1.14e5 | 83665 | 92475 | 8545 | inactive |
| egh | DRSC18771 | 1.33e5 | 1.34e5 | 2.41e5 | 2.99e5 | 11645 | inactive |
| Atx2 | DRSC15727 | 2155 | 1255 | 2525 | 2355 | 985 | inactive |
| CG30467 | DRSC07097 | 90900 | 98750 | 89415 | 91770 | 7140 | inactive |
| w-cup | DRSC03048 | 1.95e5 | 2.15e5 | 1.06e5 | 1.57e5 | 20520 | inactive |
| CG42246 | DRSC17520 | 96050 | 87390 | 93710 | 71680 | 6035 | inactive |
| primo-2 + primo-1 | DRSC16511 | 1.88e5 | 1.85e5 | 1.58e5 | 1.84e5 | 15760 | inactive |
| Cse1 | DRSC03287 | 1.54e5 | 1.70e5 | 80660 | 83690 | 15555 | active |
| Blm | DRSC16911 | 2.19e5 | 1.48e5 | 1.23e5 | 1.54e5 | 11480 | inactive |
| Asx | DRSC05924 | 14140 | 13345 | 17060 | 13870 | 3190 | inactive |
| Ugt35B1 | DRSC16893 | 1.74e5 | 1.07e5 | 1.04e5 | 90645 | 10155 | inactive |
| PIG-Q | DRSC19138 | 1.09e5 | 89285 | 96795 | 89955 | 9120 | inactive |
| Tk | DRSC14954 | 72085 | 78060 | 83045 | 47930 | 6070 | inactive |
| CG10340 | DRSC14232 | 2.10e5 | 2.26e5 | 2.79e5 | 3.36e5 | 17200 | inactive |
| Cyp6d5 | DRSC16634 | 1.49e5 | 1.64e5 | 88270 | 83725 | 10480 | inactive |
| G6P | DRSC00414 | 1.45e5 | 1.29e5 | 1.38e5 | 1.14e5 | 10305 | inactive |
| Pgant9 | DRSC05621 | 78735 | 84130 | 1.56e5 | 1.01e5 | 9070 | inactive |
| Pgant9 | DRSC06584 | 49265 | 31550 | 48460 | 44435 | 3605 | inactive |
| Pgant9 | DRSC07185 | 1.28e5 | 98525 | 1.11e5 | 88575 | 6180 | inactive |
| Pgant9 | DRSC07186 | 56650 | 56395 | 87510 | 76945 | 6305 | inactive |
| Pgant9 | DRSC07187 | 1.22e5 | 1.03e5 | 1.96e5 | 1.91e5 | 10445 | inactive |
| Pgant9 | DRSC07189 | 48870 | 27450 | 47460 | 56330 | 3850 | inactive |
| CG13442 | DRSC06402 | 1.06e5 | 1.33e5 | 2.53e5 | 1.33e5 | 6545 | inactive |
| CG15728 | DRSC19694 | 1.20e5 | 1.25e5 | 2.17e5 | 1.80e5 | 9405 | inactive |
| PRL-1 | DRSC03393 | 77495 | 94925 | 63990 | 73060 | 5845 | inactive |
| Cnx14D | DRSC20214 | 1.02e5 | 95140 | 1.17e5 | 1.10e5 | 12185 | inactive |
| CG34324 | DRSC19502 | 1.67e5 | 1.45e5 | 3.04e5 | 1.85e5 | 9565 | inactive |
| rst | DRSC17243 | 58585 | 68030 | 87325 | 96020 | 5465 | inactive |
| rst | DRSC18828 | 1.20e5 | 1.11e5 | 1.92e5 | 1.82e5 | 8230 | inactive |
| Dyrk2 | DRSC03610 | 2.15e5 | 2.45e5 | 2.11e5 | 1.75e5 | 21560 | inactive |
| Rad23 | DRSC17167 | 1.67e5 | 1.81e5 | 2.34e5 | 1.94e5 | 12545 | inactive |
| CG6972 | DRSC16159 | 1.22e5 | 1.41e5 | 1.77e5 | 1.96e5 | 11825 | inactive |
| CG7800 | DRSC16315 | 57050 | 80895 | 81570 | 54575 | 6210 | inactive |
| CG14275 | DRSC02379 | 1.46e5 | 1.64e5 | 75675 | 1.15e5 | 21530 | inactive |
| Sf3b1 | DRSC00535 | 63110 | 54575 | 65810 | 51825 | 2805 | inactive |
| CG32599 | DRSC19433 | 1.90e5 | 1.67e5 | 1.67e5 | 1.95e5 | 11732 | inactive |
| Dhc93AB | DRSC16644 | 1.83e5 | 1.69e5 | 1.89e5 | 2.15e5 | 14970 | inactive |
| barr | DRSC03488 | 39870 | 33355 | 42865 | 25605 | 2910 | inactive |

6 successive records already listed:
| gene knocked down | DRSC id | induced reporter light, run 1, well a | induced reporter light, run 1, well b | control promoter light, run 1, well a | control promoter light, run 1, well b | uninduced reporter light, run 1, well a | Outcome |
| --- | --- | --- | --- | --- | --- | --- | --- |
| Pgant9 | DRSC07189 | 48870 | 27450 | 47460 | 56330 | 3850 | inactive |
| CG13442 | DRSC06402 | 1.06e5 | 1.33e5 | 2.53e5 | 1.33e5 | 6545 | inactive |
| CG15728 | DRSC19694 | 1.20e5 | 1.25e5 | 2.17e5 | 1.80e5 | 9405 | inactive |
| PRL-1 | DRSC03393 | 77495 | 94925 | 63990 | 73060 | 5845 | inactive |
| Cnx14D | DRSC20214 | 1.02e5 | 95140 | 1.17e5 | 1.10e5 | 12185 | inactive |
| CG34324 | DRSC19502 | 1.67e5 | 1.45e5 | 3.04e5 | 1.85e5 | 9565 | inactive |
